Experimental data as given in patent publication US9650379B2 (CHONG KUN DANG PHARMACEUTICAL CORP., priority 2013, dated 2017).
Some results were stated once for a whole list of compounds, not compound by compound.

Assays:
[1] = test system: TNFa secretion from THP-1 cells; experiment: TNFa assay in THP-1 derived macrophages; format: cell-based; details: 300 and 1000 nM; 24 hours pretreatment, 100 ng/mL LPS for 4 hours
[2] = test system: histone acetylation (HDAC1) in RPMI8226 cells; experiment: Western blot analysis of histone H3 and H4 acetylation in cells; format: cell-based; details: 24 hours, Western blot (FIG. 1)

SMILES | inhibition of secretion of TNFa [1] [%] | compound concentration at which histone acetylation (HDAC1) appeared [2]
CC(C)(F)CN1CCC(c2ccnc3c2ccn3Cc2ccc(C(=O)NO)cc2)CC1 [Compound 636, 4-((4-(1-(2-fluoro-2-methylpropyl)piperidin-4-yl)-1H-pyrrolo[2,3-b]pyridin-1-yl)methyl)-N-hydroxybenzamide] | ≥ 80 | at least 10 IIM
CC(C)(F)CN1CCN(c2ccnc3c2ccn3Cc2ccc(C(=O)NO)cc2)CC1 [Compound 642, 4-((4-(4-(2-fluoro-2-methylpropyl)piperazin-1-yl)-1H-pyrrolo[2,3-b]pyridin-1-yl)methyl)-N-hydroxybenzamide] | ≥ 80 | at least 10 IIM
